Test results as given in paper PMC10748395.
Numbering of substitutions follows the chain as printed. Numbers in names are those of the source. These are yes or no findings as the source states them, for the method shown. For some assays here: Binding seen in cells or lysates may run through a third protein. Some results given as binding are weak or reduced against the parent protein; the word gives no strength. For some assays here: Where a sequence is shown, tags or fusion partners need not be part of it.

Tests used:
[1] = biological target: T1, MACC1 (Metastasis-associated in colon cancer 1), full-length, yeast two-hybrid fusion (human) (UniProt Q6ZN28); assay: two-hybrid; Gal4 system, vectors pGBT9 and pGAD10 or pGAD424, yeast reporter strain Y187, beta-galactosidase filter assay
T1 sequence: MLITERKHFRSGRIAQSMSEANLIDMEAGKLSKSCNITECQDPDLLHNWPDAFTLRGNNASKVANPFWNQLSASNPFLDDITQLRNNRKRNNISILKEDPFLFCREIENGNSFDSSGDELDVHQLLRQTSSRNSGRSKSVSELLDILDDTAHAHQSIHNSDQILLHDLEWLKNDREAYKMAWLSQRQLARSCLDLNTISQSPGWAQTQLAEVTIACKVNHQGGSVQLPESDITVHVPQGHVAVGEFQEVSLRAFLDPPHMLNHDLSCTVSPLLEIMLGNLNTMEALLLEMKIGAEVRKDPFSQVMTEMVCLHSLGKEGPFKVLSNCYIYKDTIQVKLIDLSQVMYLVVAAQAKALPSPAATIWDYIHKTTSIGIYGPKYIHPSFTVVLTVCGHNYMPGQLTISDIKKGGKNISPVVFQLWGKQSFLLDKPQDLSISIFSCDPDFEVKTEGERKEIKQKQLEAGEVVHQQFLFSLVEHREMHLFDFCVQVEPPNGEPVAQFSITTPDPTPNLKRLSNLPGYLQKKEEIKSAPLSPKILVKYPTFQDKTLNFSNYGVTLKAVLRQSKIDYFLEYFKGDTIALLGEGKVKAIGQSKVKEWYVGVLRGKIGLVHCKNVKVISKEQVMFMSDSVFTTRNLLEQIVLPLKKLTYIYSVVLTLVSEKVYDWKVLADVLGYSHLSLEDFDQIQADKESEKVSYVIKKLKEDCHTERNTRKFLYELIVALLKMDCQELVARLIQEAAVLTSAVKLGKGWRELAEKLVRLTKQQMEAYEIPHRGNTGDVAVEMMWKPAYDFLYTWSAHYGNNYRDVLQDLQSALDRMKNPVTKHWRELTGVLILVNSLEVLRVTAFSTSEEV

[2] = biological target: T2, MACC1 P531A,P534A, yeast two-hybrid fusion (human) (UniProt Q6ZN28); assay: as above
T2 sequence: T1 sequence with P531A, P534A

[3] = biological target: T3, V5-tagged MACC1 (SW480/MACC1 cells) (human) (UniProt Q6ZN28); assay: co-IP; lysates of SW480/MACC1 or SW480/ΔSH3 cells immunoprecipitated with V5 or GIPC1 antibodies (IgG and beta-tubulin antibodies as negative controls), Western blot with GIPC1 or SH3BP4 antibody
T3 sequence: T1 sequence

[4] = biological target: T4, GIPC1 in colorectal cancer cell lysates (SW620, SW480) (human (endogenous in SW620 and SW480)) (UniProt O14908); assay: as above
T4 sequence: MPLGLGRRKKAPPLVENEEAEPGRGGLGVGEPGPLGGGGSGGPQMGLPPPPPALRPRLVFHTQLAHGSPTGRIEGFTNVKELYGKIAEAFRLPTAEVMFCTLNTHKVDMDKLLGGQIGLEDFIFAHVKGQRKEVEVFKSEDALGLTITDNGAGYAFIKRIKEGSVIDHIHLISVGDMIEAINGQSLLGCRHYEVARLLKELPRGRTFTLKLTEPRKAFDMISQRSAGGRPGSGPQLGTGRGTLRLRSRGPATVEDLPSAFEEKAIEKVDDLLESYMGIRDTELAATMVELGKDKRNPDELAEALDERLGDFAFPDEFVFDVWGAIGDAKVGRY

B1: GIPC1 (GAIP C-Terminus-Interacting Protein PDZ Domain Containing Family, Member 1), full-length, yeast two-hybrid fusion (protein, UniProt O14908 1-333)
chain: T4 sequence
For B1, the binding [1] was “binds” and the binding [2] was “binds”.

B2: GIPC1 in colorectal cancer cell lysates (SW620, SW480) (protein, UniProt O14908 1-333)
chain: T4 sequence
In the case of B2, the binding [3] is reported as “binds”.

B3: SH3BP4 in SW480 cell lysate (protein, UniProt Q9P0V3 1-963)
chain: MAAQRIRAANSNGLPRCKSEGTLIDLSEGFSETSFNDIKVPSPSALLVDNPTPFGNAKEVIAIKDYCPTNFTTLKFSKGDHLYVLDTSGGEWWYAHNTTEMGYIPSSYVQPLNYRNSTLSDSGMIDNLPDSPDEVAKELELLGGWTDDKKVPGRMYSNNPFWNGVQTNPFLNGNVPVMPSLDELNPKSTVDLLLFDAGTSSFTESSSATTNSTGNIFDELPVTNGLHAEPPVRRDNPFFRSKRSYSLSELSVLQAKSDAPTSSSFFTGLKSPAPEQFQSREDFRTAWLNHRKLARSCHDLDLLGQSPGWGQTQAVETNIVCKLDSSGGAVQLPDTSISIHVPEGHVAPGETQQISMKALLDPPLELNSDRSCSISPVLEVKLSNLEVKTSIILEMKVSAEIKNDLFSKSTVGLQCLRSDSKEGPYVSVPLNCSCGDTVQAQLHNLEPCMYVAVVAHGPSILYPSTVWDFINKKVTVGLYGPKHIHPSFKTVVTIFGHDCAPKTLLVSEVTRQAPNPAPVALQLWGKHQFVLSRPQDLKVCMFSNMTNYEVKASEQAKVVRGFQLKLGKVSRLIFPITSQNPNELSDFTLRVQVKDDQEAILTQFCVQTPQPPPKSAIKPSGQRRFLKKNEVGKIILSPFATTTKYPTFQDRPVSSLKFGKLLKTVVRQNKNHYLLEYKKGDGIALLSEERVRLRGQLWTKEWYIGYYQGRVGLVHTKNVLVVGRARPSLCSGPELSTSVLLEQILRPCKFLTYIYASVRTLLMENISSWRSFADALGYVNLPLTFFCRAELDSEPERVASVLEKLKEDCNNTENKERKSFQKELVMALLKMDCQGLVVRLIQDFVLLTTAVEVAQRWRELAEKLAKVSKQQMDAYESPHRDRNGVVDSEAMWKPAYDFLLTWSHQIGDSYRDVIQELHLGLDKMKNPITKRWKHLTGTLILVNSLDVLRAAAFSPADQDDFVI
For B3, the binding [4] was “binds”.

B4: GIPC1 H191D, yeast two-hybrid fusion (protein, UniProt O14908 1-333)
chain: T4 sequence with H191D
B4 was tested, and the binding [1] was “binds”.

B5: GIPC1 C-terminal segment (aa 222-333), yeast two-hybrid fusion (domain or fragment, UniProt O14908 222-333)
chain: SQRSAGGRPGSGPQLGTGRGTLRLRSRGPATVEDLPSAFEEKAIEKVDDLLESYMGIRDTELAATMVELGKDKRNPDELAEALDERLGDFAFPDEFVFDVWGAIGDAKVGRY
With B5 the binding [1] was “binds”.

B6: GIPC2 (species not named for this test), yeast two-hybrid fusion (protein, UniProt Q8TF65 1-315)
chain: MPLKLRGKKKAKSKETAGLVEGEPTGAGGGSLSASRAPARRLVFHAQLAHGSATGRVEGFSSIQELYAQIAGAFEISPSEILYCTLNTPKIDMERLLGGQLGLEDFIFAHVKGIEKEVNVYKSEDSLGLTITDNGVGYAFIKRIKDGGVIDSVKTICVGDHIESINGENIVGWRHYDVAKKLKELKKEELFTMKLIEPKKAFEIELRSKAGKSSGEKIGCGRATLRLRSKGPATVEEMPSETKAKAIEKIDDVLELYMGIRDIDLATTMFEAGKDKVNPDEFAVALDETLGDFAFPDEFVFDVWGVIGDAKRRGL
In the case of B6, the binding [1] is reported as “binds”.

B7: human GIPC3, yeast two-hybrid fusion (protein, UniProt Q8TF64 1-312)
chain: MEGAAAREARGTETPRASAPPPAPSEPPAAPRARPRLVFRTQLAHGSPTGKIEGFTNVRELYAKIAEAFGIAPTEILFCTLNSHKVDMQKLLGGQIGLEDFIFAHVRGETKEVEVTKTEDALGLTITDNGAGYAFIKRIKEGSIINRIEAVCVGDSIEAINDHSIVGCRHYEVAKMLRELPKSQPFTLRLVQPKRAFDMIGQRSRSSKCPVEAKVTSGRETLRLRSGGAATVEEAPSEFEEEASRKVDDLLESYMGIRDPELASTMVETSKKTASAQEFARCLDSVLGEFAFPDEFVVEVWAAIGEAREACG
In the case of B7, the binding [1] is reported as “binds”.
